The text below walks through data of article PMC8700025.

B1: Peflin (PEF1) (protein, UniProt Q9UBV8 1-284)
chain: MASYPYRQGCPGAAGQAPGAPPGSYYPGPPNSGGQYGSGLPPGGGYGGPAPGGPYGPPAGGGPYGHPNPGMFPSGTPGGPYGGAAPGGPYGQPPPSSYGAQQPGLYGQGGAPPNVDPEAYSWFQSVDSDHSGYISMKELKQALVNCNWSSFNDETCLMMINMFDKTKSGRIDVYGFSALWKFIQQWKNLFQQYDRDRSGSISYTELQQALSQMGYNLSPQFTQLLVSRYCPRSANPAMQLDRFIQVCTQLQVLTEAFREKDTAVQGNIRLSFEDFVTMTASRML
B2: TgGRA1 (protein, UniProt P13403 25-190)
chain: AEGGDNQSSAVSDRASLFGLLSGGTGQGLGIGESVDLEMMGNTYRVERPTGNPDLLKIAIKASDGSYSEVGNVNVEEVIDTMKSMQRDEDIFLRALNKGETVEEAIEDVAQAEGLNSEQTLQLEDAVSAVASVVQDEMKVIDDVQQLEKDKQQLKDDIGFLTGERE
B3: TgGRA4 (protein, UniProt Q27002 21-345)
chain: GECSFGSHLADMAGLSGRHDKERHQAKKRYYHSMYGNQTPYPYANGQQASPPPQGQLLIIQNPDGSFMIVDQQGVPQVPQAAGGPGSPMNGGYYMPTGVYTAQVVPGTPGHPVQAIPQQPLRTQATATYYHPAAVPPPGPSVFVFTPSSVQPGAEVTPGYSGLQLRQQSQYGYSYPGTTSTPTPPPPASYGYPVFPAFPRLPAFSDSVSVSTEDSGLTGVKDSSSSESTVTPADEAASESEEGDKTSRKSKVKKGILTGLGVAATLAAAAAAAKAVKGFGGTRTSTAPAEAGKTELDDGYRPPPFNPRPSPYAELLKDLERMRKE

These are yes or no findings as the source states them, for the method shown. Binding seen in cells or lysates may run through a third protein. A yes stands for co-enrichment or nearness to the bait. Other partners may have been found.

This assay addresses TgGRA14 endogenously epitope-tagged at the C-terminus with 6x-HA (ME49Δku80 GRA14-HA6x) (Toxoplasma gondii (ME49, type II)). As to the kind of experiment: affinity purification with mass spectrometry; anti-HA magnetic beads on lysates of HFF infected with ME49Δku80 GRA14-HA6x or untagged ME49Δku80 (tachyzoite conditions 48 hpi; bradyzoite conditions 72 hpi also run); lysis in 50 mM Tris pH 7.6, 200 mM NaCl, 1% Triton X-100, 0.5% CHAPS; washes up to 300 mM NaCl; LC-MS/MS.
Take B1: the binding entry was “binds”.
On to B2, for which the binding result is reported as “binds”.
With B3, the binding entry was “binds”.
